From paper PMC7068124
Results are given in words; binding and its absence hold for the method and conditions named. In cells and extracts the contact can be indirect. Some binding calls cover weakened binding; strength is not graded here.

Sequences of proteins named here, by UniProt entry; tags and fusion partners are left off.
UniProt Q9Y4B6: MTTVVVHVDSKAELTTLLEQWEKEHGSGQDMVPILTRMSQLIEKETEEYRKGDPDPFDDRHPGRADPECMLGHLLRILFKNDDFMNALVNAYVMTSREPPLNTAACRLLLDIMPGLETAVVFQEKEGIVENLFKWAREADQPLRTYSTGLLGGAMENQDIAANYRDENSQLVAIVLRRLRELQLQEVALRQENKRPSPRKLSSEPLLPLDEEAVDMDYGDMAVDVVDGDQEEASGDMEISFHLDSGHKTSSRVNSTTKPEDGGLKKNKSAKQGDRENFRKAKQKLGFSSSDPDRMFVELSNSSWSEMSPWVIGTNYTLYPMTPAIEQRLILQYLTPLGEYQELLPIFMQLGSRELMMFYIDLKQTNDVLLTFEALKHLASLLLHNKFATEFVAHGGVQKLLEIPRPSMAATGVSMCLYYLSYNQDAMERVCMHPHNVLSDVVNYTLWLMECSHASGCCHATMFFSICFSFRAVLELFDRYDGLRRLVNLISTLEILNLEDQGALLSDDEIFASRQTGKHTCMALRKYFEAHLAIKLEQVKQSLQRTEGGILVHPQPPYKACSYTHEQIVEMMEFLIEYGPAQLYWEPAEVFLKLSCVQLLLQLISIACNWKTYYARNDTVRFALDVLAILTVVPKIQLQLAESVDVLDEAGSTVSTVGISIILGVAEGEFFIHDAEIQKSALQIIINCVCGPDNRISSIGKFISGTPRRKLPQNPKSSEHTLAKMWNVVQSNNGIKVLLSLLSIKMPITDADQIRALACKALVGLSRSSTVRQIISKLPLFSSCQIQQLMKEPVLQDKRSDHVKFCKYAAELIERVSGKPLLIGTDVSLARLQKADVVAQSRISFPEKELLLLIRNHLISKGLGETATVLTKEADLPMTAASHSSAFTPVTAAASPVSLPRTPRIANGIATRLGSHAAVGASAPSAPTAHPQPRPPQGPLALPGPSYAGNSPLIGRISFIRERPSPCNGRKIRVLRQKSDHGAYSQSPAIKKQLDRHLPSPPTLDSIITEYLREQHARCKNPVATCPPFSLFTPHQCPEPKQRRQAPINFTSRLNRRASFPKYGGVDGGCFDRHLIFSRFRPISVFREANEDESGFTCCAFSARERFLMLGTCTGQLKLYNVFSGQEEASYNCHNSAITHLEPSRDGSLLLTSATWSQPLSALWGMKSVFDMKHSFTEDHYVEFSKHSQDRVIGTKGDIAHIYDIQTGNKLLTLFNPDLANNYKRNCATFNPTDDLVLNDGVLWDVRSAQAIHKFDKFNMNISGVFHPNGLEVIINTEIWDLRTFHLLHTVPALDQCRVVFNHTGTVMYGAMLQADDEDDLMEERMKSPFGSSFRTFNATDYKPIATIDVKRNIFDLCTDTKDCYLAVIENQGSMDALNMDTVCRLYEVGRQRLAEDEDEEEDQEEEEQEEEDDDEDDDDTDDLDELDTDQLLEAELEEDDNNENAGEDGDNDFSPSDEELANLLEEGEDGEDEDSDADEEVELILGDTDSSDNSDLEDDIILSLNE

Target: T1, Nuclear factor erythroid 2-related factor 2 (NRF2) (human (endogenous in Beas-2B)) (UniProt Q16236)
T1 sequence: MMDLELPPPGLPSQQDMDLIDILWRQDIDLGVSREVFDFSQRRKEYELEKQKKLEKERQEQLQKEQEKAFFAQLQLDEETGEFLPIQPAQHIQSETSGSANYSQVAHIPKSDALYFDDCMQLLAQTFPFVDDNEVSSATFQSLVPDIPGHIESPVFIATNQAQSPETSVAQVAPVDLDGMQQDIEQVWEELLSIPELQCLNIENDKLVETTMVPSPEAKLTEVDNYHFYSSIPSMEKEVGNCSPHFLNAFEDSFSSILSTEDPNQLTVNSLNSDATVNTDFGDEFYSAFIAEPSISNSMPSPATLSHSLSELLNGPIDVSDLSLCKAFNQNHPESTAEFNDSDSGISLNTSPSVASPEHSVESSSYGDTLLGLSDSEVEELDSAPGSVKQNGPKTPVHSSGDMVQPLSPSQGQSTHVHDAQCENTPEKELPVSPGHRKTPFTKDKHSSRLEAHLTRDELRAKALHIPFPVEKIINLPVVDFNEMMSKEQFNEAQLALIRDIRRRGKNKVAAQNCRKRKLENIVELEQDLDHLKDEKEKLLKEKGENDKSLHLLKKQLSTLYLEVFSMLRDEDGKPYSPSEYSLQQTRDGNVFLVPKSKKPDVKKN
Test: co-IP; cells lysed in IP buffer (0.25% Triton X-100 in 1x PBS, protease inhibitors); antibody 1:100 for 2 h at 25°C, protein A/G magnetic beads 1 h, two washes, immunoblot; IP for NRF2 and IB for DCAF1 in Beas-2B cells, also after treatment with increasing concentrations of BC-1901S (less DCAF1 detected after NRF2 IP)

binding: binds
Substance: DDB1 and CUL4 Associated Factor 1 (DCAF1) (from UniProt Q9Y4B6 1-1507)
